PubChem BioAssay AID256 (DTP/NCI, 2004)
The list shows only some results of the screen, not a fair sample: it is rich in T/C values a quarter to a half above the control, in often repeated tests (any T/C) and in doses without a T/C. Other doses and runs of a compound stand elsewhere. T/C: endpoint of the treated group in % of that of the vehicle group. Some doses have a count of surviving animals in place of a T/C: the source holds a T/C of zero for them, seemingly a mark for toxic or unscored doses. Some survivor counts are full or nearly so, which does not show that the dose was tolerated: survival well below the control is almost never listed, so the zero probably covers shortened survival too. Survivors were counted at the toxicity check, usually on the fifth day, unless a day is given; later deaths do not show. Schedule codes are those of the source, read here as Q, the interval in days (D) or hours (H), X, the number of doses. Some doses were run more than once; their values stand side by side, smallest first. For survival time, the PubChem record calls one and a half times the control and up active, and a quarter to a half above the control has no call in these data; cut-offs in other NCI protocols can differ. Some T/C values carry the count of animals alive at the toxicity check (mostly the fifth day); where none is given, no animal had died by that day.

Test system: CD2F1 mice, L1210 leukemia ip, survival T/C
Test: NCI In Vivo Anticancer Drug Screen. Data for tumor model L1210 Leukemia (intraperitoneal) in CD2F1 (CDF1) mice
Conditions: higher T/C = longer survival
Method: The antitumor activity of compounds was measured in mice bearing transplantable tumors. Survival or tumor size were measured and the results are expressed as the measurement made in the treated group (T) divided by the measurement made in the vehicle treated control group (C). The tumor model used in this assay is L1210 Leukemia (intraperitoneal) in CD2F1 (CDF1) mice

[1] = T/C endpoint: median survival time, dose: 200.0 mg/kg/injection, schedule: Q01DX005 (ip), vehicle: distilled water + Tween-80

`CC1C(N)CC2CC1C2(C)C` (stereo unspecified) was tested, and the survivor count (T/C endpoint: mean survival time, dose: 100.0 mg/kg/injection, schedule: Q04DX002 (ip), vehicle: saline) was 1 of 3, the survivor count (T/C endpoint: mean survival time, dose: 200.0 mg/kg/injection, schedule: Q04DX002 (ip), vehicle: saline) was 0 of 3 and the survivor count (T/C endpoint: mean survival time, dose: 400.0 mg/kg/injection, schedule: Q04DX002 (ip), vehicle: saline) was 0 of 3.
`CCN(CC)CCOc1ccc(C2=CC3(CCCCC3)c3ccccc32)cc1` was tested, and the survivor count (T/C endpoint: mean survival time, dose: 50.0 mg/kg/injection, schedule: Q04DX002 (ip), vehicle: saline with Tween-80) was 0 of 3, the survivor count (T/C endpoint: mean survival time, dose: 100.0 mg/kg/injection, schedule: Q04DX002 (ip), vehicle: saline with Tween-80) was 1 of 3 and the survivor count (T/C endpoint: mean survival time, dose: 200.0 mg/kg/injection, schedule: Q04DX002 (ip), vehicle: saline with Tween-80) was 1 of 3. The survivor count (T/C endpoint: mean survival time, dose: 400.0 mg/kg/injection, schedule: Q04DX002 (ip), vehicle: saline with Tween-80) was 0 of 3.
For `Cc1ccc[n+](CCc2c[nH]c3ccccc23)c1`, the survivor count (T/C endpoint: mean survival time, dose: 100.0 mg/kg/injection, schedule: Q04DX003 (ip), vehicle: saline with Tween-80) was 6 of 6.
`Nc1ccn(C2OC(CO)C(O)C2Br)c(=O)n1` (stereo unspecified) was tested, and the T/C (T/C endpoint: median survival time, dose: 100.0 mg/kg/injection, schedule: Q01DX005 (ip), vehicle: Klucel (hydroxypropylcellulose) (HPC)) was 130 % of control, the T/C (T/C endpoint: median survival time, dose: 100.0 mg/kg/injection, schedule: Q01DX005 (ip), vehicle: saline) was 138 % of control and the T/C (T/C endpoint: median survival time, dose: 200.0 mg/kg/injection, schedule: Q01DX005 (ip), vehicle: Klucel (hydroxypropylcellulose) (HPC)) was 138 % of control. For the same molecule, the T/C (T/C endpoint: median survival time, dose: 400.0 mg/kg/injection, schedule: Q01DX005 (ip), vehicle: Klucel (hydroxypropylcellulose) (HPC)) was 142 % of control.
For `CN1CCN(C(=O)NCCCl)CC1`, the survivor count (T/C endpoint: mean survival time, dose: 20.0 mg/kg/injection, schedule: Q01DX009 (ip), vehicle: saline) was 2 of 6.
With `CCC(C)C1NC(=O)C(NC(=O)c2c3nc4c(C(=O)NC5C(=O)NC(C(C)CC)C(=O)N6CCCC6C(=O)N(C)CC(=O)N(C)C(C(C)C)C(=O)OC5C)cc(N)c(C)c4oc-3c(C)c(=O)c2N)C(C)OC(=O)C(C(C)C)N(C)C(=O)CN(C)C(=O)C2CCCN2C1=O` (stereo unspecified) the T/C (T/C endpoint: mean survival time, dose: 100.0 micrograms/kg/injection, schedule: Q01DX009 (ip), vehicle: water) was 125 % of control, the survivor count (T/C endpoint: mean survival time, dose: 200.0 micrograms/kg/injection, schedule: Q01DX009 (ip), vehicle: water) was 6 of 6 and the survivor count (T/C endpoint: mean survival time, dose: 400.0 micrograms/kg/injection, schedule: Q01DX009 (ip), vehicle: water) was 4 of 6. The survivor count (T/C endpoint: mean survival time, dose: 800.0 micrograms/kg/injection, schedule: Q01DX009 (ip), vehicle: water) was 1 of 6.
With `C=C1C(=O)C23[C@H](O)C1CC[C@H]2[C@]12COC3(O)[C@@H](O)[C@@H]1C(C)(C)CC[C@@H]2O` the survivor count (T/C endpoint: mean survival time, dose: 9.0 mg/kg/injection, schedule: Q01DX009 (ip), vehicle: Klucel (hydroxypropylcellulose) (HPC)) was 2 of 6, the survivor count (T/C endpoint: mean survival time, dose: 36.0 mg/kg/injection, schedule: Q01DX009 (ip), vehicle: Klucel (hydroxypropylcellulose) (HPC)) was 2 of 6 and the survivor count (T/C endpoint: mean survival time, dose: 50.0 mg/kg/injection, schedule: Q01DX009 (ip), vehicle: saline with Tween-80) was 1 of 6 and 2 of 6.
For `O=S(=O)(Cl)c1ccc2cc3ccccc3cc2c1`, the survivor count (T/C endpoint: mean survival time, dose: 400.0 mg/kg/injection, schedule: Q01DX001 (ip), vehicle: saline) was 2 of 6.
`Cc1c(O)ccc([N+](=O)[O-])c1O` was tested, and the survivor count (T/C endpoint: mean survival time, dose: 50.0 mg/kg/injection, schedule: Q04DX003 (ip), vehicle: saline with Tween-80) was 2 of 6.
With `Nc1nc([Se]c2nc(N)nc3c2ncn3C2OC(CO)C(O)C2O)c2ncn(C3OC(CO)C(O)C3O)c2n1` (stereo unspecified) the T/C (T/C endpoint: median survival time, dose: 12.5 mg/kg/injection, schedule: Q01DX005 (ip), vehicle: distilled water + Tween-80) was 130, 134, 148 % of control, the T/C (T/C endpoint: median survival time, dose: 25.0 mg/kg/injection, schedule: Q01DX005 (ip), vehicle: distilled water + Tween-80) was 142, 144, 152, 156 % of control and the T/C (T/C endpoint: median survival time, dose: 50.0 mg/kg/injection, schedule: Q01DX005 (ip), vehicle: distilled water + Tween-80) was 142, 156, 172, 178 % of control [5 of 6 alive]. The T/C (T/C endpoint: median survival time, dose: 100.0 mg/kg/injection, schedule: Q01DX005 (ip), vehicle: distilled water + Tween-80) was 143, 145, 150, 151, 202 % of control, the T/C (T/C endpoint: median survival time, dose: 166.67 mg/kg/injection, schedule: Q01DX005 (ip), vehicle: distilled water + Tween-80) was 139 % of control and the T/C [1] was 97 [5 of 6 alive], 148, 211 % of control. The survivor count [1] was 2 of 5, the survivor count (T/C endpoint: median survival time, dose: 277.78 mg/kg/injection, schedule: Q01DX005 (ip), vehicle: distilled water + Tween-80) was 4 of 6 and the survivor count (T/C endpoint: median survival time, dose: 400.0 mg/kg/injection, schedule: Q01DX005 (ip), vehicle: distilled water + Tween-80) was 0 of 5.
